{"source": "patent US20040023952A1", "about": "(priority 2002, published 2004)", "test_system": "V1 cortical cells", "assay_type": "in vivo, rhesus monkeys (Macaca mulatta)", "from_the_text": "Extracellular single-neuron recording techniques were used to examine the stimulus selectivities of VI cells in very old rhesus monkeys showing normal optics and retinogeniculate projections. A total of 187 neurons were studied in 4 young rhesus monkeys (Maraca mulatta), and 254 neurons in 4 old rhesus monkeys. Subjects for physiological experiments were abbreviated as OM1-4 (for old monkey 1-4) and YM1-4 (for young monkey 1-4). Retinal data were obtained from one additional young macaque (YM5, Macaca fascicularis). Multiple ophthalmological exams were conducted to ensure optical and retinal health of all subjects prior to testing.\nSubjects for this study were four young adult (7-9 year old) and four very old (28-30 year old) female rhesus monkeys (Macaca mullata). […] Thus, the 28-30 year old monkeys were considered old, whereas the 7-9 year old monkeys were at an age considered sexually mature. Retinal control data for FIG. 1 are provided from one additional young female Macaca facsicularis, which was used in previous studies. Onset latency data from YM4 are published. Monkeys were examined ophthalmoscopically, and no apparent optical or retinal problems were detected that would impair visual function. Retinal blood vessels, lens clarity and the maculae all appeared normal. All cells studied had receptive fields between 2 and 5 degrees from the fovea. Monkeys were prepared for electrophysiological recording using standard techniques consistent with Society for Neuroscience and National Institute of Health guidelines.\nSubjects were sedated with Ketamine HC1 (Ketalar, Parke-Davis, Morris Plains, N.J.) and then anesthetized with halothane (5%; Halocarton Laboratories, River Edge, N.J.) in a 70:30 mixture of […]. Intravenous and tracheal cannulae were inserted, the animals were placed in a stereotaxic apparatus, and pressure points and incisions were infiltrated with a long-acting anesthetic (2% lidocaine HCI, Copley Pharmaccuticak, Canton, Mass.). A mixture of D-tubocurarine (0.4 mg per kg per hour) and gallamine triethiodide (7 mg per kg per hour) was infused intravenously to induce and maintain paralysis. Animals were ventilated, and anesthesia was maintained with a mixture of nitrous oxide (75%), oxygen (25%) and halothane (0.25-1.0%) as needed.\nA small burr hole was made above the striate cortex (V1), and filled with a 4% solution of agar in saline and sealed with wax. The eyes were protected from desiccation with contact lenses; spectacle lenses and artificial pupils were used when needed to focus the eyes on a tangent screen positioned 228 cm from the retina. The locations of the optic discs and foveae were determined repeatedly during the course of each recording session. No visible deterioration in optics occurred during the experimental period (2-5 days).\nExtracellular action potentials of isolated cortical cells were recorded with microelectrodes having impedances of 3-5 MΩ. The electrode was advanced using a hydraulic microdrive (David Kopf instruments, Tojunga, Calif.) to precisely position it. The position of the electrode was confirmed by determining the receptive filed positions of the cortical cells at the recording site. A1 V1 cells studied had receptive fields between about 3 and 7 degrees from the fovea.\nAfter placing the microelectrode as in Example 1, visual stimuli were measured using a Tektronix (Beaverton, Oreg.) 608 display driven by a Picasso (Inning Cambridge, Mass.) image synthesizer and a texture/motion generator (Innisfree). The Picasso and texture/motion generator were computer controlled in conjunction with a hardware and software package from Cambridge Electronics Design (Cambridge, England). The center of the display screen was 171 cm from the animal's retina.\nThe physiological orientation biases and direction biases of cortical cell were studied quantitatively. The orientation of each drifting stimulus presented was orthogonal to its direction of motion. […]", "key": {"[1]": {"conditions": "single cell of old monkey, FIG. 10, three minutes after GABA or muscimol application, within five minutes of bicuculline"}}, "note": "At least one compound was matched to its structure with a doubt left."}
{"smiles": "CN1CCc2cc3c(cc2[C@H]1[C@@H]1OC(=O)c2c1ccc1c2OCO1)OCO3", "note": "[bicuculline]", "values": [{"measurement": "signal-to-noise ratio of cortical cells (response to appropriate stimuli divided by spontaneous discharge rate)", "setting": "old monkeys, FIG. 7", "result": "does not improve signal-to-noise ratios"}, {"measurement": "number/proportion of orientation and direction selective cells in area V1", "setting": "old monkeys, FIGS. 8 and 9", "result": "further decrease in the number of selective cells"}, {"measurement": "peak response (maximum visually evoked response) of V1 cortical cells", "setting": "old monkeys, intracortical delivery through microelectrode, FIG. 5", "result": "further increases peak response"}, {"measurement": "spontaneous activity of V1 cortical cells", "setting": "old monkeys, intracortical delivery through microelectrode, FIG. 6", "result": "further increases"}, {"measurement": "time until effects are seen after drug administration", "setting": "old monkeys, intracortical delivery, current 15-50 n amp for 1-3 minutes", "result": "Within five minutes"}, {"measurement": "direction selectivity of a representative cortical cell", "setting": "[1]", "result": "lost its orientation and direction sensitivity"}, {"measurement": "orientation selectivity of a representative cortical cell", "setting": "[1]", "result": "lost its orientation and direction sensitivity"}, {"measurement": "peak response of a representative cortical cell", "setting": "[1]", "result": "peak response and spontaneous activity increased dramatically"}, {"measurement": "spontaneous activity of a representative cortical cell", "setting": "[1]", "result": "peak response and spontaneous activity increased dramatically"}]}
